In PMC2740829:
Results are given in words; binding and its absence hold for the method and conditions named. In cells and extracts the contact can be indirect. Some entries that bind do so weakly or less than the wild type.

Sequences of proteins named here, by UniProt entry; tags and fusion partners are left off.
UniProt P11142: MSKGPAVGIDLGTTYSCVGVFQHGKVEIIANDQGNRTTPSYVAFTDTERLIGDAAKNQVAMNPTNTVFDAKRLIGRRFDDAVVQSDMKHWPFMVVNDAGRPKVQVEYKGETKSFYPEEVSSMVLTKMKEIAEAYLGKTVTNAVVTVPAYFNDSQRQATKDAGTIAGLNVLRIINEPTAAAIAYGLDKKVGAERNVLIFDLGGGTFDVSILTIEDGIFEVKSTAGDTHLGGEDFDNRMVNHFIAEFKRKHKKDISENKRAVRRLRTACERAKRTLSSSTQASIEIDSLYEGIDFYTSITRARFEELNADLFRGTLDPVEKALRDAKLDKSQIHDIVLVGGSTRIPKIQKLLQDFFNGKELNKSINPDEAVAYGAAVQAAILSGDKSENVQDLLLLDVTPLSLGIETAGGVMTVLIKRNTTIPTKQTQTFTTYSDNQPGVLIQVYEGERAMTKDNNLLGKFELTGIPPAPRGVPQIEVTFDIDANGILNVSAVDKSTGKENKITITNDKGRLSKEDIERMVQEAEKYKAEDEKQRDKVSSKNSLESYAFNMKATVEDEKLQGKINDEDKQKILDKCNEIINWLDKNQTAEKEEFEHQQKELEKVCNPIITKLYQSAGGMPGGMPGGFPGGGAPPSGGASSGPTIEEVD

Target: HSPA8 Heat shock cognate 71 kDa protein (Heat shock 70 kDa protein 8), endogenous (human (endogenous in HEK293)) (UniProt P11142)
Assay: co-IP; endogenous HSPA8 immunoprecipitated with anti-HSPA8 antibody on Sepharose Protein A beads from mitochondrial isolates of HEK293 cells (expressing FLAG.OMI.S306C by the legend); IEF/2D separation and immunoblot

B1: PDHB Pyruvate dehydrogenase E1 component beta subunit, mitochondrial, endogenous (protein, UniProt P11177 31-359)
chain: LQVTVRDAINQGMDEELERDEKVFLLGEEVAQYDGAYKVSRGLWKKYGDKRIIDTPISEMGFAGIAVGAAMAGLRPICEFMTFNFSMQAIDQVINSAAKTYYMSGGLQPVPIVFRGPNGASAGVAAQHSQCFAAWYGHCPGLKVVSPWNSEDAKGLIKSAIRDNNPVVVLENELMYGVPFEFPPEAQSKDFLIPIGKAKIERQGTHITVVSHSRPVGHCLEAAAVLSKEGVECEVINMRTIRPMDMETIEASVMKTNHLVTVEGGWPQFGVGAEICARIMEGPAFNFLDAPAVRVTGADVPMPYAKILEDNSIPQVKDIIFAIKKTLNI
binding: binds

B2: IDH3A Isocitrate dehydrogenase [NAD] subunit alpha, mitochondrial, endogenous (protein, UniProt P50213 28-366)
chain: TGGVQTVTLIPGDGIGPEISAAVMKIFDAAKAPIQWEERNVTAIQGPGGKWMIPSEAKESMDKNKMGLKGPLKTPIAAGHPSMNLLLRKTFDLYANVRPCVSIEGYKTPYTDVNIVTIRENTEGEYSGIEHVIVDGVVQSIKLITEGASKRIAEFAFEYARNNHRSNVTAVHKANIMRMSDGLFLQKCREVAESCKDIKFNEMYLDTVCLNMVQDPSQFDVLVMPNLYGDILSDLCAGLIGGLGVTPSGNIGANGVAIFESVHGTAPDIAGKDMANPTALLLSAVMMLRHMGLFDHAARIEAACFATIKDGKSLTKDLGGNAKCSDFTEEICRRVKDLD
binding: binds
